The record followed here is publication PMC7862700.

Only a part is listed here, and it is no random draw. For some of these results: At the low end of the ranking the order means little. This is one part of the list. For some of these results: The source does not settle which construct or isoform was used.

What all share (assay): DAPPL (digital affinity profiling via proximity ligation, sequencing)
Conditions in all cases: 10 mM Tris-HCl pH 7.5, 50 mM NaCl, 1 mM DTT, 4% glycerol, room temperature, 30 min; GST-TFs on glutathione beads, 16-mer random dsDNA library, 0.1% …; high values mean tight binding; double strand, one strand shown; scale: fold enrichment (6-mer frequency, TF over GST control)

Test [1] deals with T1, GABPA (UniProt Q06546).
T1 sequence: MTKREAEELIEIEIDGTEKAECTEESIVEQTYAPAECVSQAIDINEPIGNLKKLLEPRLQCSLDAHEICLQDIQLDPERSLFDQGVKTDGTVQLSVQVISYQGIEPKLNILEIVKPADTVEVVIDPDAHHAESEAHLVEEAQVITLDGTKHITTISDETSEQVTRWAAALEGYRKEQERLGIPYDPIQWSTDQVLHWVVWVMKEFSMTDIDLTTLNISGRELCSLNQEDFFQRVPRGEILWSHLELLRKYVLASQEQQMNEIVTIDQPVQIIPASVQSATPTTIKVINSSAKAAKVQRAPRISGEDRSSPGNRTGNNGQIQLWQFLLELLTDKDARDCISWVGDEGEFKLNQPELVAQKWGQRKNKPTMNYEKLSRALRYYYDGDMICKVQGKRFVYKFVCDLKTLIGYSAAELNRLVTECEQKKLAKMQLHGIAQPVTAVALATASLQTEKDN

In test [2] the target is T2, ETS1 (UniProt P14921).
T2 sequence: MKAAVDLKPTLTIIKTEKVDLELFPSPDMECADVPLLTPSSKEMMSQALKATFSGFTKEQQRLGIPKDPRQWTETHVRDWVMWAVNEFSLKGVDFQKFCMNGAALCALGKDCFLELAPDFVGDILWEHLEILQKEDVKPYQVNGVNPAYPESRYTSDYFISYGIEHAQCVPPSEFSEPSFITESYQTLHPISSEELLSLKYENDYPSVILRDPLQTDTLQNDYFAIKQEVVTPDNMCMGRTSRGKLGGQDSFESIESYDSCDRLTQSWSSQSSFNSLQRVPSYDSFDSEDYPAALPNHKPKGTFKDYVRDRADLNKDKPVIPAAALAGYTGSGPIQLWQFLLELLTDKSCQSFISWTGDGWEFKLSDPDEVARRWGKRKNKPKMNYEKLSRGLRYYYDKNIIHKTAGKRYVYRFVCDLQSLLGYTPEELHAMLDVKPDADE

In test [3] the target is T3, SPDEF (UniProt O95238).
T3 sequence: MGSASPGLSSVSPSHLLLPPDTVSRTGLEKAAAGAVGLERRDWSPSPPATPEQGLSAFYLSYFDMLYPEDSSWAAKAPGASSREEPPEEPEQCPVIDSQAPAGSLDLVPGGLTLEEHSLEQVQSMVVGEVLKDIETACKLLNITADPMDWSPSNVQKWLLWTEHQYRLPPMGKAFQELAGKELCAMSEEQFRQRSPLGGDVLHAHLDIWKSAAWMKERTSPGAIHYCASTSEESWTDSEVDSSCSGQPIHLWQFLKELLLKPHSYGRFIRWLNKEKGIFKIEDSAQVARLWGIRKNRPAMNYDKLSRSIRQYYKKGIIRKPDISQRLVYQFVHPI

For ACGTTG, the binding signal in test [1] worked out at 1.05; in test [2], 0.99.
Consider TCGTTT, for which the results for the binding signal in test [1] and in test [2] were 1.28 and 1.18, respectively.
Taken in the same sequence, the figures for GGTACA were 0.965 and 1.08.
Turning to GGATTC, the binding signal in test [1] is 0.891; in test [2], 0.897.
Regarding CGACAG, the binding signal in test [1] was found to be 0.99; in test [2], 0.953.
As for TGGCGT, the values for the binding signal in test [1], in test [2] and in test [3] were 0.963, 1.07 and 0.967, respectively.
